Laboratory results as given in paper PMC4081076.
Results are given in words; binding and its absence hold for the method and conditions named. In cells and extracts the contact can be indirect. Some binding calls cover weakened binding; strength is not graded here. For some of these results: Tags and fused reporters may be left off the sequences shown. Each block holds one molecule with its values, some of them ahead of it.

By UniProt entry, the sequences of proteins in these tests, tags left out. Where a name states a change or a piece, a line headed by the entry shows the natural chain unless it says otherwise. Chains listed by the source or under a name are the forms on record and can include a tag or linker.
UniProt P40235: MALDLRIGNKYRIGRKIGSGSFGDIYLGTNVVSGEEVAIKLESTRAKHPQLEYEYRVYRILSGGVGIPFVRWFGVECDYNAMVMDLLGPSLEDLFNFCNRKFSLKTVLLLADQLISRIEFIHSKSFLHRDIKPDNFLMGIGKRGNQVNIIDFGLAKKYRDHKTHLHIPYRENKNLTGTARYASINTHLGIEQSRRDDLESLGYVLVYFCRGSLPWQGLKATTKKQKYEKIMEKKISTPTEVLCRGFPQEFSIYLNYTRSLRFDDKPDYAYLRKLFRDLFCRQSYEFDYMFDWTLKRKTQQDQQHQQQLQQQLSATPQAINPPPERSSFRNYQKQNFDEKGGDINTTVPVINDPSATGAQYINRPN
UniProt P04551: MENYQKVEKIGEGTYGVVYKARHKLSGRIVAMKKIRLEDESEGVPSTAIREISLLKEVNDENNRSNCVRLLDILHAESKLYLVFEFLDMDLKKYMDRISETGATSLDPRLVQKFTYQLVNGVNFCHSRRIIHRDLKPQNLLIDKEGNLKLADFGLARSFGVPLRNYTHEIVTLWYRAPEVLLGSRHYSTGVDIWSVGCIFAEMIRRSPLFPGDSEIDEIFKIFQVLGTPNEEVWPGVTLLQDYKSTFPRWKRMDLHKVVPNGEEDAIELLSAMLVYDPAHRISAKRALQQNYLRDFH
Cdc2.1w kinase (P04551, form named): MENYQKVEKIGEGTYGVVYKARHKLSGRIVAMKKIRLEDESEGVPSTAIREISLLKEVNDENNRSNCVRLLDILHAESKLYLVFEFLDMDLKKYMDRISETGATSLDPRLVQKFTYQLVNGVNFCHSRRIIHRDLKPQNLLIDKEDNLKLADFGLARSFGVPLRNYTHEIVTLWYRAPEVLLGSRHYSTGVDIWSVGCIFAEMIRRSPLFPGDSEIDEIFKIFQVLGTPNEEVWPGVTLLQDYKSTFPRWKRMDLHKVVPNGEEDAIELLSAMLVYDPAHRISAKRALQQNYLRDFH

Key:
Hhp1-GFP (S. pombe) = Hhp1-GFP (S. pombe) (UniProt P40235); assay: co-IP; GFP-Trap: Hhp1-GFP captured on GFP-nAb agarose from soluble extracts (50 mM HEPES pH 8.0, 200 mM KoAC, 20 mM NaCl, 1 mM EDTA, 0.1% Nonidet) of wild-type cells untreated or treated with 40 uM CPT for 4 h, and of untreated cdc2.1w cells; blotted with anti-GFP and anti-Cdc2
Cdc2 kinase (S. pombe) = Cdc2 kinase (S. pombe) (UniProt P04551); assay: co-IP; native protein extracts (150 ul) of untreated tagged S. pombe strains incubated over night with 5 ul anti-Cdc2 antibody or an unrelated IgG, harvested with 30 ul protein A/G beads, blotted with a tag-specific antibody

binding (Hhp1-GFP (S. pombe)): binds
Molecule: Cdc2.1w kinase (from UniProt P04551 1-297) (enzyme)

binding (Cdc2 kinase (S. pombe)): binds
B4: Srs2-Myc13 (enzyme, UniProt Q10213 1-887)
chain: METKSSYLKFLNEEQRISVQSPHKYTQILAGPGSGKTRVLTARVAYLLQKNHIAAEDLIIATFTNKAANEIKLRIEAILGNSEASKLISGTFHSIAYKYLVKYGKHIGLSSNWLIADRNDTQAIMKRLLDSLKKAKNPIASGIRGQELTPQNALNRITKLKSNGLLVKPGMDQLSLINGLEEPPKELQSHQSVELYRLYQTSLWKNNLADFDDLLLNFILLLQKQPDCVRNIKHILIDEFQDTSKIQYFLVKLLALQNSDITIVGDPDQSIYGFRSAEIRNLNQMSEDFEGTQVLHLERNYRSAKPILELALSIISQDKSRPKKGLKSNHISSLKPHYRLFETNNKESYWIAREIKRIVGSCPELIFYNDIAILVRSSSLTRSLEHALSELGVPYRMVGVNKFFDREEIRDLIAYLRVLANKDSTSLIRVINVPPRNIGKTKIDRIIFESERRGLTFWQTLNEVKNENILLSQRNDKSFLKSLKSFLCSISKLENRYLSNGHSATLSDLLLGILSEIKYYEYLVRKNKETVEEKWENVMELVQQSDNISCIFYELDYKISTIVLLQNFLTQIALVNEEQKEGESQKVTISTLHAAKGLEWPVVFLPCLCENIIPHSRSDDLDEERRLLYVGATRAQALLYLSSFKSVTGMFADMQNSDNVQDVSPFLKGEEMKRWVMESEIVFNEKIASEIGTILGRKSYGKITNLSGIGSNANHNGTKFENLGFQCCRVLAEAELKKRERVKSVNDYNKDETNFRKHNAKRSKTDIRSWFEKKQPIDSDVEISEPSRSASIMVANKDLNDRSFETVNRIVSTRASTTNASFMSSVRQNLGRGPSTKDQVINRTLREGHQDVVQHTDLNQSNTKVASARPAGSRKRLGVRLRVSRML

The remaining lines, values behind:

Molecule: Hhp1-HA3 (from UniProt P40235 1-365) (enzyme)
binding (Cdc2 kinase (S. pombe)): binds

Molecule: Cdc2 kinase (from UniProt P04551 1-297) (enzyme)
binding (Hhp1-GFP (S. pombe)): binds

B1: Ku70-GFP-HA3 (protein, UniProt O94395 1-607)
chain: MENDEQIDETENFAIGKYAILFVIEVSPSMLDPVDEFTPSSLQMALICAYQLAAQRVITNPSDIMGVLLYGTESSTGRFANQMMLLDIDPPDAERIKSLQSFEKDFQFSKEKFKPCSCQVSLSSVLYHCSVIFTTKAENFEKRLFLITDNDHPAWDATERDIILQRAKDLRDLDIQVHPVFLDPPTHSFRINIFYSDFLYIVYGRQDVSNLVNRGQAQLQHMLNMITALQKPKRAHFHLKMDLGNDVRIGVEAFILLKRLESAKTNWVYAKGERFAVAVPQSKQVSFATKKELKKDEIRRSYSYGGSSVVFGSDELNKVRSFEPPTLRIIGFRDFSTLKPWHCLKPAVFLRPKDDEIIGSGAVFSAIHKKLLASNKIGIAWFVSRPNANPCFVAMLATPGSIHIRDDFELPLGIFLVQLPTADDIRSLPPINPNPISMPSNLIETMQRILRGMELRSYQPGKYNNPSLQWHYKVLQALALDEEIPTDFVDNTLPKYKAIQKRVGEYMGDVNNIVAEYRNDISDKNGIKEEEEDQGPIVKKARIEKSGKPIFAEDDRLKQLYIEGVLDKEIKALKVSQLKDILRDRGLRVSGKKADLLDNLTNYVKKL
binding (Cdc2 kinase (S. pombe)): binds

B2: Chk1-HA3 (enzyme, UniProt P34208 1-496)
chain: MAQKLDNFPYHIGREIGTGAFASVRLCYDDNAKIYAVKFVNKKHATSCMNAGVWARRMASEIQLHKLCNGHKNIIHFYNTAENPQWRWVVLEFAQGGDLFDKIEPDVGIDEDVAQFYFAQLMEGISFMHSKGVAHRDLKPENILLDYNGNLKISDFGFASLFSYKGKSRLLNSPVGSPPYAAPEITQQYDGSKVDVWSCGIILFALLLGNTPWDEAISNTGDYLLYKKQCERPSYHPWNLLSPGAYSIITGMLRSDPFKRYSVKHVVQHPWLTSSTPFRTKNGNCADPVALASRLMLKLRIDLDKPRLASSRASQNDSGFSMTQPAFKKNDQKELDRVEVYGALSQPVQLNKNIDVTEILEKDPSLSQFCENEGFIKRLAKKAKNFYEICPPERLTRFYSRASRETIIDHLYDSLRLLAISVTMKYVRNQTILYVNLHDKRKCLLQGVIELTNLGHNLELINFIKRNGDPLEWRKFFKNVVSSIGKPIVLTDVSQN
binding (Cdc2 kinase (S. pombe)): binds

B3: Ku80-HA3 (protein, UniProt Q9HGM8 1-695)
chain: MSDKECTVFVLDLGKDMGTCHHGRSHSDLEWTLSYFHDELSHKFLANRKTDVVGIVGYKCDDTKNDLAEQEAYWNISVLYPIQTALFSKLQSVSQTLKPSNTMQGDLISAIVVSFDLMARHCKKNKWKKKMIVLTAARGIIDFSDYIGIAEQLLQHDVFLGVYGVDFDQEDINYSEPLKESQKKENEVRIQEFVESCHGQYCTFQQIYNNIGKPWVRKVRPVAIFRGTFSIGNRDSKDTSISIQVERYPRTRLTKPPTSSAFYENDMSKNYECLNIENSNVENKSMESDAVSTVRSYMVRDPKTNDSFEVKREDLESGYSYGRTIVPISRSDEDVLALDTIPGYEILGFIPKSSLPIYYTISDTNIIVPKDDFESKLNFSAFVQSLEREHRYALARFVSKDKGVPVLLVLMPYVEFKRHYLVDIQLPFAEDVRPYSFSEFEKLSNEEDMRQIDFAVSNYIDNMDLDSSDCGFNPPFEPENTFSMIPHRLQQAISYYANSPEGDLPQPNIYLTRYTNPPKSLLDNCILDLKLIKEKLTVNVPVKPKYSSQETAFDTGAPISEEQIEELLNSGLDEQEGEKLLVLHVSEKDPVGTFTEVLKNPFGLEDALTEMEKVIKNLIDKSKYDLALQSLQSLRLHSILEDEVERFNEYLTRLKKDVMQNNKPKENELINKIRSSGLDIILHDELTRHDNFNNI
binding (Cdc2 kinase (S. pombe)): binds
